Construct, isoform or probe ends are uncertain for at least one entry.

The test system of data set [1] is AP2XII-4-D2 (AP2-D2) (Neospora caninum Nc1). Briefly: EMSA. The conditions noted are these: signal lost with unlabeled cold probe; LightShift Chemiluminescent EMSA Kit (Thermo) per manufacturer; pH and temperature not stated; recombinant protein; protein details: His, Halo (pET30a). A general note: A gel shift assay detects complexes by their altered migration in electrophoresis.

The subject of data set [2] is AP2XII-4-D1 (AP2-D1) (Neospora caninum Nc1). Briefly: EMSA. The conditions noted are these: signal lost with unlabeled cold probe; LightShift Chemiluminescent EMSA Kit (Thermo) per manufacturer; pH and temperature not stated; recombinant protein; protein details: His, Halo (pET30a).

Take “GGCACTTCTTCAACTGACAACGTAATCA (double strand) [ROP5 promoter probe]”: the binding result in data set [1] and in data set [2] was “binds” in each case.
